# From publication PMC11178496
# Protein sequences, listed by entry. Tags and fused reporters are not part of them. Residues count along the entry.
# UniProt Q14790: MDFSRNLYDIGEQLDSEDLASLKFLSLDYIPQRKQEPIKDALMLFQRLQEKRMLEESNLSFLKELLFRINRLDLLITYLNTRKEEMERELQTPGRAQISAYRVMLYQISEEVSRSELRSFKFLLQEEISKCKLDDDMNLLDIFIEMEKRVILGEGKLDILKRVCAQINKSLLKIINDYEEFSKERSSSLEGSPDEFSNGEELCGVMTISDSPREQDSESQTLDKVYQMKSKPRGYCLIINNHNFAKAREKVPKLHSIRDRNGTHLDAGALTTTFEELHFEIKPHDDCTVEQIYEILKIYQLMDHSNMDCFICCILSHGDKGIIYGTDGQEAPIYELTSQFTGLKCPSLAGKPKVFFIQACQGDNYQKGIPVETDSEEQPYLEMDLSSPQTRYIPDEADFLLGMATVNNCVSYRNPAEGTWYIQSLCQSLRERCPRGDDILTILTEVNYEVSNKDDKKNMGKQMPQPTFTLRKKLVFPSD
# UniProt P25445, residues 26-335: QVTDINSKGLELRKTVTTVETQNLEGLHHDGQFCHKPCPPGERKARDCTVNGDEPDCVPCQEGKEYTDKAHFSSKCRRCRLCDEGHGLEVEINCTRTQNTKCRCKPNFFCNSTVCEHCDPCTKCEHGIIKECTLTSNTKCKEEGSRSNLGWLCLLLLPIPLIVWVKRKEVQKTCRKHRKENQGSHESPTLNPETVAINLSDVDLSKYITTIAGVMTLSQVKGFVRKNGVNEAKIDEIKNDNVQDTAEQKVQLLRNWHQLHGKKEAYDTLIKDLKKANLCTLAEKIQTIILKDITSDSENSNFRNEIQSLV
# UniProt Q9BQA1: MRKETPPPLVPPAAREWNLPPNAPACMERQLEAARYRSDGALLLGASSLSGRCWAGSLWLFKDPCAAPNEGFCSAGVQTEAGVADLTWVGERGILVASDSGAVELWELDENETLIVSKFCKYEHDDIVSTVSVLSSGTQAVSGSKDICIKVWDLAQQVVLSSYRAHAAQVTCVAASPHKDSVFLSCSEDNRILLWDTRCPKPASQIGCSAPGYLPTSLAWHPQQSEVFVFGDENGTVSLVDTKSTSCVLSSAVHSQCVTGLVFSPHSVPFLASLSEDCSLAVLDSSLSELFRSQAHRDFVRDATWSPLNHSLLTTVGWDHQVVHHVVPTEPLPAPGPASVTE
# UniProt O14744: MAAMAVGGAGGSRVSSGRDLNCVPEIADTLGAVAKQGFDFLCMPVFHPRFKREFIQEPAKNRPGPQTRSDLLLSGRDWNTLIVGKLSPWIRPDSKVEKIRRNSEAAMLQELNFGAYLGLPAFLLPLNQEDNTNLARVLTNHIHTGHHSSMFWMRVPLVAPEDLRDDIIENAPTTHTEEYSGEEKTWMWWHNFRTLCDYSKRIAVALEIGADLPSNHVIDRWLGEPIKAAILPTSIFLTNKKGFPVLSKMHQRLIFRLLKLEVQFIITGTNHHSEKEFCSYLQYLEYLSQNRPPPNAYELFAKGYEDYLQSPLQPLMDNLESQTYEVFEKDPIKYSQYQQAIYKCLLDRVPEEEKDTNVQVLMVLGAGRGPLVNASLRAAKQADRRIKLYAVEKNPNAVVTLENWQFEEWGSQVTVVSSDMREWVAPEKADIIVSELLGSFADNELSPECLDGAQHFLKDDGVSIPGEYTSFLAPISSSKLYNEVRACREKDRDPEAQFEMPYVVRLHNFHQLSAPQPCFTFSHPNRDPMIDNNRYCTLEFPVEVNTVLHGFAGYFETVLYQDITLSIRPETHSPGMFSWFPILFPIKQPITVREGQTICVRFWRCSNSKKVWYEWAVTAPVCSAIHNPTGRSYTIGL
# Results are given in words; binding and its absence hold for the method and conditions named. In cells and extracts the contact can be indirect. These calls come from enrichment with a bait or labelling near it, and not all partners need be listed.
# Columns and labels:
# [1] = target: Procaspase-8 (human (endogenous in SKW 6.4)) (UniProt Q14790); experiment: affinity purification with mass spectrometry; anti-caspase-8 or anti-CD95 (anti-APO-1) antibodies covalently coupled to sepharose beads (Pierce Co-Immunoprecipitation kit); total lysates of SKW 6.4 cells treated for 15 min with 166 ng/mL CD95L or left untreated; nanoLC-tandem mass spectrometry
# [2] = target: CD95/Fas (human (endogenous in SKW 6.4)) (UniProt P25445); experiment: as above
binding [1],binding [2],Substance
binds,binds,MEP50/WD45/WDR77 (WD repeat-containing protein) (from UniProt Q9BQA1 1-342)
binds,binds,PRMT5 (from UniProt O14744 1-637) (enzyme)
